These results are taken from PubChem BioAssay AID2685 (National Center for Advancing Translational Sciences (NCATS), 2010).

This assay is described as follows: qHTS Assay for Lipid Storage Modulators in Drosophila S3 Cells.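 On cell number change: cells counted by Cell Tracker Red CMTPX staining in the red channel.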 Particulars: BODIPY lipid droplet fluorescence, 18-24 h; for cell number change: measured here: cell count max response, cells fed with added oleic acid. In outline:
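Drosophila S3 cells got compounds at several concentrations plus oleic acid (400 uM solution). Laser-scanning cytometry with 488 nm excitation read lipid droplets at 500-530 nm and cells at 575-640 nm. Percent activity was relative to 20 uM Triacsin C.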

Where [1] appears, read: measured here: cell number channel AC50, cells fed with added oleic acid.
The mark [2] stands for this setting: measured here: lipid fluorescence (Fed channel) AC50, cells fed with added oleic acid.

Each structure is given as a SMILES string. Some of the results follow. Shown are side measurements of this screen, not its main read-out; they come without a call. Compounds called inactive in the main read-out are mostly missing here. Potencies come from curve fits of mixed quality, noted in brackets.

As for `O=C(NCCC1=CCCCC1)C1CCN(C(=O)Nc2ccccc2)CC1`, the cell number change was -39.9%. Under setting [1], the AC50 is 5.17 µM [falling, full curve]. Further, under setting [2], the AC50 was 18.4 µM [falling, partial curve]. Regarding `COc1cc(/C=N/n2cnnc2)ccc1OCc1ccccc1`, the cell number change was -6.53%.

Regarding `COc1ccc(-c2nc3ncccc3o2)cc1NC(=O)c1cccs1`, the cell number change is 12.6%. Besides, the AC50 under setting [2] is 6.51 µM [falling, single point]. `Cc1ccc(-n2[nH]c(C)c(/C=N/N3C(=O)c4cccc5cccc(c45)C3=O)c2=O)cc1`: the cell number change is -27.8%. Same read-out and setting: the figure for `Cc1c(Cl)cccc1NC(=O)C1COc2ccccc2O1` (configuration not stated) is 10.3%. As to `COc1cc(C)ccc1OCCOCCOc1cccc2ccc(C)nc12`, the cell number change was 3.49%. Under setting [1], the AC50 was 0.146 µM [falling, partial curve, poor fit]. Besides, the half-maximal activity concentration (AC50) under setting [2] was 0.146 µM [falling, full curve, poor fit].

Consider `COc1ccc(CCNC(=O)c2ccc(CNS(=O)(=O)c3ccccc3)cc2)cc1OC`, for which the cell number change was 35.5%. Besides, the concentration at half-maximal activity (AC50) under setting [1] was 13 µM [rising, partial curve, poor fit]. For the compound `CC(C)NC(=O)CSc1nnc(C2CC2)n1-c1ccccc1`, the cell number change was -4.83%. Besides, under setting [1], the half-maximal activity concentration (AC50) is 0.0731 µM [rising, full curve, poor fit]. Moreover, under setting [2], the concentration at half-maximal activity (AC50) was 4.11 µM [rising, partial curve, poor fit].

As for `COc1ccc(CCNCC2C(Oc3ccc(Cl)cc3)C(=O)N2c2ccccc2C)cc1OC` (configuration not stated), the cell number change was -19%. Turning to `O=C(Nc1ccccc1F)c1ccc(C(=O)c2ccccc2)cc1`, the cell number change was -45.5%. Besides, the AC50 under setting [1] was 29.1 µM [falling, single point]. Moreover, the AC50 under setting [2] was 32.6 µM [falling, partial curve]. `C/C=C\C=C/C(=O)Nc1cccc(C2=NOC3(C2)C[C@@H](C(N)=O)N(C(=O)C2(C)CC2)C3)c1` (some centres not stated): the cell number change came to 3.83%. Besides, the AC50 under setting [2] was 6.51 µM [rising, single point]. As to `O=C(Nc1cccc(-c2ccc(N3CCCCC3)nn2)c1)C(F)(F)F`, the cell number change was -59.5%. For the same compound, under setting [1], the half-maximal activity concentration (AC50) was 16.4 µM [falling, single point].

As for `COc1cccc(N(CC(=O)NC2CCCCC2)C(=O)CCC(=O)Nc2nc(C)cs2)c1`, the cell number change is -4.35%. Besides, the concentration at half-maximal activity (AC50) under setting [2] is 6.51 µM [rising, partial curve, poor fit]. Take `COc1ccc(N(C(=O)c2ccncc2)S(=O)(=O)c2cccc([N+](=O)[O-])c2)cc1`: the cell number change is 20.6%. In addition, the concentration at half-maximal activity (AC50) under setting [2] is 0.092 µM [rising, full curve, poor fit]. Regarding `CCn1c(SCC(=O)Nc2cc(C)on2)nnc1-c1cccc(C)c1`, the cell number change was -2.63%. In the case of `CCn1c(CCC(=O)O)nc2cc(S(=O)(=O)N(C)C)ccc21`, the cell number change is 9.34%. Moreover, the concentration at half-maximal activity (AC50) under setting [2] is 2.91 µM [falling, single point].

`CCc1ccccc1N(C(=O)c1snc(C(N)=O)c1N)C(C(=O)NCC1CCCO1)c1ccc(N(C)C)cc1` (configuration not stated): the cell number change is 13.3%. Under setting [2], the AC50 was 1.64 µM [rising, partial curve]. Consider `CCOC(=O)c1ccc(S(=O)(=O)N2CC(=O)Nc3ccccc32)cc1`, for which the cell number change came out at 7.56%. With `N#CC(C#N)=C1NC2(CCCCC2)Cc2ccccc21`, the cell number change amounted to 11.5%. In addition, the concentration at half-maximal activity (AC50) under setting [2] was 0.58 µM [rising, full curve]. Take `Cc1sc2nc(CSc3ccccc3)nc(N3CCOCC3)c2c1C`: the cell number change came to 12.3%. The AC50 under setting [2] was 9.2 µM [rising, partial curve].

Take `CCOc1cc(/C=N/NC(=O)Cn2nc([N+](=O)[O-])cc2C)cc(Br)c1OCc1ccccc1C`: the cell number change was -2.83%. In addition, the AC50 under setting [2] is 0.13 µM [rising, full curve, poor fit].

For `O=C(CN1N=C(c2ccc(Cl)cc2)CCC1=O)NCCN1CCc2ccccc2C1`, the cell number change is -20.3%. Further, the AC50 under setting [2] was 32.6 µM [falling, single point]. In the case of `Cc1ccc(N(O)C(=O)OCCNC(=O)Nc2ccccc2)cc1`, the cell number change was -32%. For the same compound, the AC50 under setting [1] was 0.461 µM [falling, full curve, poor fit]. The AC50 under setting [2] is 0.116 µM [falling, single point]. For the compound `COCCn1c(SCC(=O)c2cc(C)n(C)c2C)nc2ccccc2c1=O`, the AC50 runs as follows: under setting [1], 0.58 µM [rising, single point]; under setting [2], 1.3 µM [rising, single point]. As for `COc1ccc(C(=O)NCCNC(=O)c2cnccn2)cc1OC`, the cell number change was 10.3%. Also, the half-maximal activity concentration (AC50) under setting [2] was 6.51 µM [falling, partial curve]. On to `CCOC(=O)c1sc(NC(=S)NC(=O)c2ccccc2)c(C(=O)OCC)c1C`, for which the cell number change worked out at 6.19%. Further, the half-maximal activity concentration (AC50) under setting [2] is 0.731 µM [rising, full curve, poor fit]. Turning to `COc1c2ccc(C(=O)NCc3cc(C(F)(F)F)cc(C(F)(F)F)c3)cc2nn1C`, the cell number change was 31.5%. Also, the AC50 under setting [1] was 11.6 µM [rising, partial curve]. Besides, the AC50 under setting [2] was 11.6 µM [rising, partial curve]. With `O=C(c1ccccc1)N1N=C(c2ccccc2)CC1c1ccccc1[N+](=O)[O-]` (configuration not stated), the cell number change amounted to 45.5%. For the same compound, the concentration at half-maximal activity (AC50) under setting [1] is 29.1 µM [rising, partial curve, poor fit]. The AC50 under setting [2] was 23.1 µM [rising, single point]. Turning to `COc1ccc(N2C(=NC(=O)CCC3CCCC3)SC3CS(=O)(=O)CC32)cc1` (configuration not stated), the cell number change was 18.3%. For `Cc1cc(Br)ccc1SCC(=O)Nc1cccnc1`, the cell number change is 2.47%. The AC50 under setting [2] is 0.00411 µM [falling, full curve, poor fit].

On to `COc1ccccc1CNC(=O)COc1ccc(Br)c(C)c1`, for which the cell number change amounted to 2.1%. In addition, under setting [2], the AC50 is 7.31 µM [rising, single point]. In the case of `CCCN(C(=O)c1cc(S(=O)(=O)N2CCCCCC2)ccc1OC)C1CCS(=O)(=O)C1` (configuration not stated), the cell number change was 60%. Also, the half-maximal activity concentration (AC50) under setting [1] was 16.4 µM [rising, single point]. Consider `CN1CCN(C(=O)/C(=C\c2cccs2)NC(=O)c2ccccc2)CC1`, for which the cell number change is 34.3%. In addition, the AC50 under setting [2] was 29.1 µM [rising, single point]. For `CC(C)(C)c1ccccc1NC(=O)N1CCNC(=O)C1CC(=O)Nc1ccc(F)cc1` (configuration not stated), the cell number change was found to be 11.4%. Moreover, the half-maximal activity concentration (AC50) under setting [2] was 16.4 µM [rising, single point]. On to `Cc1cc(C)cc(C(=O)OCC(=O)NCC(F)(F)F)c1`, for which the AC50 under setting [2] was 2.91 µM [rising, single point]. Consider `CC[C@H](C)[C@H](NC(N)=O)C(=O)NCCc1ccc(Cl)cc1Cl`, for which the cell number change is -44.5%. Besides, the concentration at half-maximal activity (AC50) under setting [1] was 32.6 µM [falling, single point]. Moreover, the concentration at half-maximal activity (AC50) under setting [2] is 29.1 µM [falling, partial curve, poor fit]. In the case of `CCc1c(C(=O)Nc2nnc(C3CC3)s2)csc1C`, the cell number change was 6.81%. In addition, the AC50 under setting [2] was 5.8 µM [rising, single point]. As to `CCCN1CCN(C(c2cc3cc4c(cc3[nH]c2=O)OCO4)c2nnnn2C(C)(C)C)CC1` (configuration not stated), the cell number change was -18%. For the same compound, the AC50 under setting [2] is 29.1 µM [rising, single point]. As for `Nc1nnc(-c2ccc(Cl)cc2Cl)s1`, the cell number change amounted to 34%. For the same compound, the AC50 under setting [1] was 1.46 µM [rising, full curve, poor fit]. For the same compound, the concentration at half-maximal activity (AC50) under setting [2] was 0.731 µM [rising, single point]. For the compound `CCc1nn2c(=O)c(S(=O)(=O)Nc3cccc(F)c3)c(C)nc2s1`, the cell number change is -2.63%.

Take `FC(F)(F)c1cccc(Nc2ncnc3ccccc23)c1`: the cell number change was -12.3%. Moreover, the AC50 under setting [2] was 5.8 µM [rising, partial curve]. On to `COCCC(=O)N1CCC(Oc2ccc(C(=O)NCCn3cccn3)cc2)CC1`, for which the cell number change was determined as 26.2%. Moreover, the concentration at half-maximal activity (AC50) under setting [2] is 29.1 µM [rising, single point]. `CN(CC(=O)Nc1ccc(Cl)cc1)CC(=O)Nc1cc(Cl)ccc1C#N`: the cell number change was 10.8%. Besides, under setting [2], the half-maximal activity concentration (AC50) was 10.3 µM [rising, single point]. Turning to `COc1ccc(/C=C2/SC(=S)N(CC(=O)O)C2=O)cc1OCc1ccc(Cl)cc1`, the cell number change was found to be 16.5%.

For `Cc1ccccc1/C=C/C(=O)NCC(=O)N1CCC(N(C)C2CCCCC2C)CC1` (configuration not stated), the AC50 under setting [1] is 4.61 µM [falling, single point] and the AC50 under setting [2] was 5.17 µM [falling, single point]. `CCOc1ccc(NC(=O)c2ccccc2NS(C)(=O)=O)cc1`: the cell number change is -0.462%. Under setting [2], the AC50 was 5.8 µM [rising, single point]. `CCOc1ccc(Cl)cc1S(=O)(=O)N1CCC(C(=O)NCc2ccncc2)CC1`: the cell number change came out at 9.66%. The AC50 under setting [2] was 0.082 µM [falling, partial curve, poor fit]. With `CC1=CS(=O)(=O)CC1Sc1nc(C)n[nH]1` (configuration not stated), the cell number change is -24.2%. Also, under setting [2], the concentration at half-maximal activity (AC50) is 29.1 µM [falling, single point]. Turning to `CN(C)S(=O)(=O)c1cccc(COc2ncnc3c(Cl)cc(Cl)cc23)c1`, the cell number change was -0.403%. In addition, the AC50 under setting [2] was 2.91 µM [falling, partial curve].

As for `C=CC(COCc1ccccc1)N(C(=O)OC(C)(C)C)S(=O)(=O)c1ccccc1Br` (configuration not stated), the cell number change was -0.85%. Further, the half-maximal activity concentration (AC50) under setting [2] was 0.58 µM [rising, full curve, poor fit]. Regarding `CC(C)c1nc(N2CCN(C(=O)c3ccccc3)CC2)c(C#N)c2c1COC(C)(C)C2`, the cell number change is -29.4%. As to `Cc1nc(Sc2ccccc2)c(C#N)c(C)c1[N+](=O)[O-]`, the cell number change turned out to be 25.8%. In addition, the AC50 under setting [2] is 0.92 µM [rising, full curve]. For the compound `O=C(CC1SC(=NC2CCCCC2)NC1=O)Nc1ccccc1` (configuration not stated), the cell number change was -25.1%. Under setting [2], the half-maximal activity concentration (AC50) was 25.9 µM [falling, single point]. In the case of `CC(CNC(=O)c1cc(COc2ccc3ncccc3c2)on1)c1ccccc1` (configuration not stated), the cell number change was -22.4%. In addition, the AC50 under setting [2] was 29.1 µM [falling, single point]. Regarding `Cc1nnc(Nc2ccc(Cl)c(C(F)(F)F)c2)[nH]c1=O`, the half-maximal activity concentration (AC50) under setting [2] was 29.1 µM [rising, single point]. For the compound `O=C(O)CCCC(=O)N1CCC(C(O)(c2ccccc2)c2ccccc2)CC1`, the cell number change is -41.1%. Further, the AC50 under setting [1] is 29.1 µM [falling, single point]. For the same compound, under setting [2], the half-maximal activity concentration (AC50) is 20.6 µM [falling, single point].

For the compound `CCCc1ccc2oc(C(=O)NCCN3CCCC(O)C3)c(C)c2c1` (configuration not stated), the cell number change was found to be 0.552%. The AC50 under setting [2] is 6.51 µM [falling, single point]. In the case of `COc1ccc(NC(=O)c2ccc(OCC3CCCO3)cc2)cc1OC` (configuration not stated), the cell number change was -1.3%. Also, the AC50 under setting [2] was 0.231 µM [rising, full curve, poor fit].

Turning to `COc1cc(NC(=O)COc2ccccc2C)ccc1NC(=O)c1ccco1`, the cell number change is 30.9%. For the same compound, the half-maximal activity concentration (AC50) under setting [1] was 29.1 µM [rising, single point]. In addition, the half-maximal activity concentration (AC50) under setting [2] is 18.4 µM [falling, single point].
